Measured data: PubChem BioAssay AID743454 (Peter MacCallum Cancer Centre, 2014)
Purpose: 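Knock-downs lowering viability or raising caspase 3/7 activity in vorinostat-treated resistant cells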 (primary screen). Cell system: human HCT116-VR colon cancer cells, selected for vorinostat resistance. Knock-down reagent: siRNA pool against human genes, 40 nM siRNA pool. Timing: vorinostat for 24 h, read-out about 72 h after transfection. Challenge: vorinostat at 2.5 µM final. Measurement: 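Cell viability by CellTiter-Fluor and caspase 3/7 activity by luminescence, each scaled to mock wells per plate, duplicates averaged, then robust z-scored over all plates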. Reading the numbers: viability robust z-score: higher = more viable cells than screen typical; caspase robust z-score: higher = more caspase 3/7 activity than screen typical. Hit rule: 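a knock-down is a hit when classed RV1 or RV2 for lowered viability, or CA1 or CA2 for caspase activation; those lethal without drug were dropped; hits were retested singly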.
The whole screen tested about 18,000 reagents; shown is an unselected part. 450 of all reagents (2.5%) were called active. 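Single biological run; no consistent viability z cut-off exists, so the class columns, not z-scores, define the calls.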 A number with no mark means an inactive call.

ITIH1 (GeneID 3697): viability hit class = no change; caspase hit class = no change; viability robust z-score = 0.06; caspase robust z-score = -0.99
IRAG1 (GeneID 10335): viability hit class = no change; caspase hit class = no change; viability robust z-score = -0.22; caspase robust z-score = 0.57
ARMC3 (GeneID 219681): viability hit class = no change; caspase hit class = no change; viability robust z-score = 0.12; caspase robust z-score = -1.09
EHD3 (GeneID 30845): viability hit class = no change; caspase hit class = no change; viability robust z-score = 0.43; caspase robust z-score = -0.61
SSBP4 (GeneID 170463): viability hit class = no change; caspase hit class = no change; viability robust z-score = 0.12; caspase robust z-score = -0.82
DKK1 (GeneID 22943): viability hit class = no change; caspase hit class = no change; viability robust z-score = 0.83; caspase robust z-score = -0.72
PRRT3 (GeneID 285368): viability hit class = no change (active); caspase hit class = CA1 (caspase activation); viability robust z-score = -0.3; caspase robust z-score = 8.29
OR1D2 (GeneID 4991): viability hit class = no change; caspase hit class = no change; viability robust z-score = -0.26; caspase robust z-score = 0.76
MATN4 (GeneID 8785): viability hit class = no change; caspase hit class = no change; viability robust z-score = -2; caspase robust z-score = 2.34
OLFM1 (GeneID 10439): viability hit class = no change; caspase hit class = no change; viability robust z-score = -0.23; caspase robust z-score = -0.99
RSL1D1 (GeneID 26156): viability hit class = no change; caspase hit class = no change; viability robust z-score = -1.39; caspase robust z-score = 1.24
TNFRSF1B (GeneID 7133): viability hit class = no change; caspase hit class = no change; viability robust z-score = -0.41; caspase robust z-score = 0.54

Quoted from the listing (2 entries):
MATN4 (GeneID 8785): viability hit class = no change; caspase hit class = no change; viability robust z-score = -2; caspase robust z-score = 2.34
OLFM1 (GeneID 10439): viability hit class = no change; caspase hit class = no change; viability robust z-score = -0.23; caspase robust z-score = -0.99

Further records follow.
APOB (GeneID 338): viability hit class = no change; caspase hit class = no change; viability robust z-score = 1.29; caspase robust z-score = 1.38
SYNJ2BP (GeneID 55333): viability hit class = no change; caspase hit class = no change; viability robust z-score = -1.38; caspase robust z-score = 0.05
ENKUR (GeneID 219670): viability hit class = no change; caspase hit class = no change; viability robust z-score = 0.29; caspase robust z-score = -0.56
THSD4 (GeneID 79875): viability hit class = no change; caspase hit class = no change; viability robust z-score = -0.79; caspase robust z-score = 1.87
RTL9 (GeneID 57529): viability hit class = no change; caspase hit class = no change; viability robust z-score = 0.86; caspase robust z-score = -0.4
CCR2 (GeneID 729230): viability hit class = no change; caspase hit class = no change; viability robust z-score = -1.3; caspase robust z-score = -0.24
ATF3 (GeneID 467): viability hit class = no change; caspase hit class = no change; viability robust z-score = -0.28; caspase robust z-score = 0.63
KRTAP4-11 (GeneID 653240): viability hit class = no change; caspase hit class = no change; viability robust z-score = -0.77; caspase robust z-score = 3.33
NDST4 (GeneID 64579): viability hit class = no change; caspase hit class = no change; viability robust z-score = 1.04; caspase robust z-score = -0.68
